Here are results for one sequence from paper PMC10516927, “DNA-bridging by an archaeal histone variant via a unique tetramerisation interface” (Communications Biology, 2023).

This series addresses T1, MJ1647 (Methanocaldococcus jannaschii) (UniProt Q59041).
T1 sequence (looked up): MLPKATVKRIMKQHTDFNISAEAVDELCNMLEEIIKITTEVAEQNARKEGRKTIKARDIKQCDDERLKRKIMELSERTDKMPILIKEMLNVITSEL
The series can be described thus: EMSA. The note with it: smear, unstable complex; EMSA: 50 nM DNA, 10 mM Tris/HCl pH 8.0, 222 mM NaCl, 0.4 mM TCEP, 0.1 mg/ml BSA, 5% glycerol, 37 C 15 min; recombinant protein; residues 1-96; protein details: untagged; label: Cy3 (Methods).

Weaker means in comparison with the reference protein, sequence or condition of that experiment. Tags and fusion partners may be left off the protein sequences shown.

On to “CATACTGGTTCCAAAGCATGAAATAGTTCCAA (double strand) [30 bp EMSA template]”, for which the binding result is recorded as “binds more weakly”.
